Results are given in words; binding and its absence hold for the method and conditions named. Binding seen in cells or lysates may run through a third protein.
Molecular target: T1, Acheron/Larp6 (mouse) (mouse (endogenous in C2C12)) (UniProt Q8BN59)
T1 sequence: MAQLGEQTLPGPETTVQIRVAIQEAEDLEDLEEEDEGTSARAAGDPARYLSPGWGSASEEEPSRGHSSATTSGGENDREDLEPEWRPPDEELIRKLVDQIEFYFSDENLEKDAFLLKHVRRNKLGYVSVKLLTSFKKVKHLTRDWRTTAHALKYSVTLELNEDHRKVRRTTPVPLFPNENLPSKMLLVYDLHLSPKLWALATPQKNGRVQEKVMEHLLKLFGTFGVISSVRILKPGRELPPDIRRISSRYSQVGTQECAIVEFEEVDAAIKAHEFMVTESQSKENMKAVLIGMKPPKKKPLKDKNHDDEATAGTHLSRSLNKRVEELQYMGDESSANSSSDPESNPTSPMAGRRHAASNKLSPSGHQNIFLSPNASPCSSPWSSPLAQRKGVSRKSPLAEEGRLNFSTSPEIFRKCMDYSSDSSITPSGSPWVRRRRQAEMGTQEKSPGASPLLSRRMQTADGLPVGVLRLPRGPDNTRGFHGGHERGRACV
Experiment: co-IP; mouse C2C12 myoblast lysates (400-500 ug) with rabbit polyclonal anti-Acheron antibody (1:200) overnight at 4°C, protein A sepharose; 10 mM Tris pH 7.4, 1% triton, 0.5% NP-40, 150 mM NaCl; immunoblot for partners

Chains of the proteins cited; added tags and fusions are not shown.
UniProt P10417: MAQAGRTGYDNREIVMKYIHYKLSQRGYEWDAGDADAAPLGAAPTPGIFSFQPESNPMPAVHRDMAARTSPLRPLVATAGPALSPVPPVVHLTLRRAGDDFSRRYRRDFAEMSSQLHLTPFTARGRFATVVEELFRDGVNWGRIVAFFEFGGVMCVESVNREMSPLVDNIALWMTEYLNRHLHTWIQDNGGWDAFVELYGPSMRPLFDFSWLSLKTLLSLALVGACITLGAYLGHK

“Bcl-2 (mouse) (from UniProt P10417 1-236)” was tested, and the binding was “no binding”.
